Consider one compound from patent US20230391808A1, “PHOSPHAPHENALENE-GOLD(I) COMPLEXES AS CHEMOTHERAPEUTIC AGENTS AGAINST GLIOBLASTOMA” (priority 2020, published 2023).

Each structure is given as a SMILES string.

In the data set the test system is NCH82 cell line. Nature of the data set: Drug uptake kinetics by fluorescence microscopy. In kind it is cell-based, human. The procedure: Based on the observed high bio-activity and the spectroscopic properties of Compound 6 as an example of the present invention, the drug uptake kinetics was investigated in NCH82 cell line. To this end, cells were treated with increasing concentrations of Compound 6 and its drug uptake was monitored with a fluorescence microscope (excitation/emission 350/455 nm; data not shown).
To measure the uptake kinetics of compound 6 by NCH82 cells, they were seeded in a 96-well plate (5,000 cells/well) and after 24 h, cell culture medium was replaced with compound 6 or DMSO-containing medium (0.1, 1 and 10 μM). Images were taken with a fluorescence microscope (Olympus, Shinjuku, Japan) at 1 h, 24 h and 48 h after treatment initiation. A laser with an excitation/emission spectrum of 350/455 nm was used and images were taken with a 10× objective.

On to `CC(=O)OC[C@H]1O[C@@H]([S][Au-][P+]2(c3ccccc3)c3ccn(C)c3-c3cccc4cccc2c34)[C@H](OC(C)=O)[C@@H](OC(C)=O)[C@@H]1OC(C)=O` (stereo partly drawn) [Compound 6], for which the “time after which compound started to be internalized” value (0.1 μM) was 24 h. Also, the “time after which cells started to absorb the compound” value (1 μM) came out at 1 h. Further, the “time of treatment after which cells internalize the compound and start shrinking and detaching” value (10 μM) came to 1 h.
